Measured values reported in patent US20090136979A1, “Class IIA Histone Deacetylase (HDAC) Substrate” (ISTITUTO DI RICERCHE DI BIOLOGIA MOLECOLARE P. ANG, priority 2005, published 2009).
At least one compound was matched to its structure with a doubt left. Some results were stated once for a whole list of compounds, not compound by compound.

Experiments:
[1] = test system: HDAC4-FLAG; assay: Enzymatic activity of HDAC4-FLAG, inhibition (Biomol assay kit and histone substrates); type: biochemical; details: FIG. 2
[2] = target: T1, HDAC8 (Homo sapiens, UniProt Q9BY41); details: substrate of (recombinant) human HDAC8; cited from earlier work
T1 sequence (Q9BY41 1-377): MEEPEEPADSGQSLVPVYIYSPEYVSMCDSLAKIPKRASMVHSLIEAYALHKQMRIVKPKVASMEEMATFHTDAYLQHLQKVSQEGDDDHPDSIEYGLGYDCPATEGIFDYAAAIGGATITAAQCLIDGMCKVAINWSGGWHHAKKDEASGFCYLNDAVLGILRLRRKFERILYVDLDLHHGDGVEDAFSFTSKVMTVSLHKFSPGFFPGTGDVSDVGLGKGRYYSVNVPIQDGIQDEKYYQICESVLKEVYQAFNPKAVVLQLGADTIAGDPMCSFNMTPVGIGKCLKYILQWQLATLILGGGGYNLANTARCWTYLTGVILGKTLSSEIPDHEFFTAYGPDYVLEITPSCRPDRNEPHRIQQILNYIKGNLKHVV

| SMILES | IC50 [1] | inhibition constants [1] | Km [2] |
| --- | --- | --- | --- |
| CCC(=O)CCCCC[C@@H]1NC(=O)[C@H]2CCCCN2C(=O)[C@H]([C@@H](C)CC)NC(=O)[C@H](Cc2cn(OC)c3ccccc23)NC1=O [Apicidin] | low nanomolar | good inhibition constants | – |
| CC(=O)NCCCC[C@H](NC(=O)OC(C)(C)C)C(=O)Nc1ccc2c(C)cc(=O)oc2c1 [Boc-L-Lys(ε-acetyl)-MCA] | – | – | ≥ 500 µM |
